{"source": "patent US7524834B2", "about": "“Sterile powders, formulations, and methods for producing the same” (AstraZeneca AB, priority 1997, dated 2009)", "key": {"[1]": {"test": "Effect of dry heat treatment on chemical purity and physical form of micronized budesonide", "type": "physicochemical"}, "[2]": {"test": "Stability of micronized budesonide substance during sterilization by irradiation, liquid chromatography", "type": "physicochemical"}, "[3]": {"settings": "after heat treatment, each sample compared to sample 1"}, "[4]": {"settings": "sample 1, reference, no heat treatment"}}, "note": "For at least one compound, name, drawing or mass did not settle the structure."}
{"smiles": "CCCC1O[C@@H]2C[C@H]3[C@@H]4CCC5=CC(=O)C=C[C@]5(C)[C@H]4[C@@H](O)C[C@]3(C)[C@]2(C(=O)CO)O1", "note": "(stereo partly drawn) [Budesonide, budesonide]", "values": [{"measurement": "Change in Brunauer, Emett and Teller (BET) surface value", "setting": "[1]; [3]", "result": "no change"}, {"measurement": "Change in X-ray diffraction pattern", "setting": "[1]; [3]", "result": "no change"}, {"measurement": "Budesonide content", "setting": "[1]; [4]", "result": 99.4, "unit": "% by wt"}, {"measurement": "Epimer A", "setting": "[1]; [4]", "result": 48.8, "unit": "% by wt"}, {"measurement": "Size (mass median diameter, Coulter counter)", "setting": "[1]; [4]", "result": 2.0, "unit": "μm"}, {"measurement": "Size range (10-90%)", "setting": "[1]; [4]", "result": 2.6, "unit": "μm"}, {"measurement": "Total of known foreign steroids", "setting": "[1]; [4]", "result": 0.13}, {"measurement": "Total of unknown foreign steroids", "setting": "[1]; [4]", "result": 0.04}, {"measurement": "Budesonide content", "setting": "[1]; sample 2, 100° C., 4 hours", "result": 99.3, "unit": "% by wt"}, {"measurement": "Epimer A", "setting": "[1]; sample 2, 100° C., 4 hours", "result": 48.8, "unit": "% by wt"}, {"measurement": "Size (mass median diameter, Coulter counter)", "setting": "[1]; sample 2, 100° C., 4 hours", "result": 2.2, "unit": "μm"}, {"measurement": "Size range (10-90%)", "setting": "[1]; sample 2, 100° C., 4 hours", "result": 2.5, "unit": "μm"}, {"measurement": "Total of known foreign steroids", "setting": "[1]; sample 2, 100° C., 4 hours", "result": 0.14}, {"measurement": "Total of unknown foreign steroids", "setting": "[1]; sample 2, 100° C., 4 hours", "result": 0.04}, {"measurement": "Budesonide content", "setting": "[1]; sample 3, 100° C., 6 hours", "result": 99.3, "unit": "% by wt"}, {"measurement": "Epimer A", "setting": "[1]; sample 3, 100° C., 6 hours", "result": 48.7, "unit": "% by wt"}, {"measurement": "Size (mass median diameter, Coulter counter)", "setting": "[1]; sample 3, 100° C., 6 hours", "result": 2.2, "unit": "μm"}, {"measurement": "Size range (10-90%)", "setting": "[1]; sample 3, 100° C., 6 hours", "result": 2.5, "unit": "μm"}, {"measurement": "Total of known foreign steroids", "setting": "[1]; sample 3, 100° C., 6 hours", "result": 0.16}, {"measurement": "Total of unknown foreign steroids", "setting": "[1]; sample 3, 100° C., 6 hours", "result": 0.05}, {"measurement": "Budesonide content", "setting": "[1]; sample 4, 100° C., 10 hours", "result": 99.2, "unit": "% by wt"}, {"measurement": "Epimer A", "setting": "[1]; sample 4, 100° C., 10 hours", "result": 48.7, "unit": "% by wt"}, {"measurement": "Size (mass median diameter, Coulter counter)", "setting": "[1]; sample 4, 100° C., 10 hours", "result": 2.2, "unit": "μm"}, {"measurement": "Size range (10-90%)", "setting": "[1]; sample 4, 100° C., 10 hours", "result": 2.5, "unit": "μm"}, {"measurement": "Total of known foreign steroids", "setting": "[1]; sample 4, 100° C., 10 hours", "result": 0.15}, {"measurement": "Total of unknown foreign steroids", "setting": "[1]; sample 4, 100° C., 10 hours", "result": 0.05}, {"measurement": "Budesonide content", "setting": "[1]; sample 5, 110° C., 2 hours", "result": 99.2, "unit": "% by wt"}, {"measurement": "Epimer A", "setting": "[1]; sample 5, 110° C., 2 hours", "result": 48.7, "unit": "% by wt"}, {"measurement": "Size (mass median diameter, Coulter counter)", "setting": "[1]; sample 5, 110° C., 2 hours", "result": 2.2, "unit": "μm"}, {"measurement": "Size range (10-90%)", "setting": "[1]; sample 5, 110° C., 2 hours", "result": 2.5, "unit": "μm"}, {"measurement": "Total of known foreign steroids", "setting": "[1]; sample 5, 110° C., 2 hours", "result": 0.16}, {"measurement": "Total of unknown foreign steroids", "setting": "[1]; sample 5, 110° C., 2 hours", "result": 0.04}, {"measurement": "Budesonide content", "setting": "[1]; sample 6, 110° C., 4 hours", "result": 99.3, "unit": "% by wt"}, {"measurement": "Epimer A", "setting": "[1]; sample 6, 110° C., 4 hours", "result": 48.8, "unit": "% by wt"}, {"measurement": "Size (mass median diameter, Coulter counter)", "setting": "[1]; sample 6, 110° C., 4 hours", "result": 2.2, "unit": "μm"}, {"measurement": "Size range (10-90%)", "setting": "[1]; sample 6, 110° C., 4 hours", "result": 2.5, "unit": "μm"}, {"measurement": "Total of known foreign steroids", "setting": "[1]; sample 6, 110° C., 4 hours", "result": 0.15}, {"measurement": "Total of unknown foreign steroids", "setting": "[1]; sample 6, 110° C., 4 hours", "result": 0.08}, {"measurement": "Budesonide content", "setting": "[1]; sample 7, 110° C., 10 hours", "result": 98.9, "unit": "% by wt"}, {"measurement": "Epimer A", "setting": "[1]; sample 7, 110° C., 10 hours", "result": 48.7, "unit": "% by wt"}, {"measurement": "Size (mass median diameter, Coulter counter)", "setting": "[1]; sample 7, 110° C., 10 hours", "result": 2.3, "unit": "μm"}, {"measurement": "Size range (10-90%)", "setting": "[1]; sample 7, 110° C., 10 hours", "result": 2.5, "unit": "μm"}, {"measurement": "Total of known foreign steroids", "setting": "[1]; sample 7, 110° C., 10 hours", "result": 0.18}, {"measurement": "Total of unknown foreign steroids", "setting": "[1]; sample 7, 110° C., 10 hours", "result": 0.18}, {"measurement": "Budesonide content", "setting": "[1]; sample 8, 120° C., 1 hour", "result": 99.2, "unit": "% by wt"}, {"measurement": "Epimer A", "setting": "[1]; sample 8, 120° C., 1 hour", "result": 48.7, "unit": "% by wt"}, {"measurement": "Size (mass median diameter, Coulter counter)", "setting": "[1]; sample 8, 120° C., 1 hour", "result": 2.2, "unit": "μm"}, {"measurement": "Size range (10-90%)", "setting": "[1]; sample 8, 120° C., 1 hour", "result": 2.5, "unit": "μm"}, {"measurement": "Total of known foreign steroids", "setting": "[1]; sample 8, 120° C., 1 hour", "result": 0.14}, {"measurement": "Total of unknown foreign steroids", "setting": "[1]; sample 8, 120° C., 1 hour", "result": 0.04}, {"measurement": "Budesonide content", "setting": "[1]; sample 9, 120° C., 2 hours", "result": 99.2, "unit": "% by wt"}, {"measurement": "Epimer A", "setting": "[1]; sample 9, 120° C., 2 hours", "result": 48.7, "unit": "% by wt"}, {"measurement": "Size (mass median diameter, Coulter counter)", "setting": "[1]; sample 9, 120° C., 2 hours", "result": 2.2, "unit": "μm"}, {"measurement": "Size range (10-90%)", "setting": "[1]; sample 9, 120° C., 2 hours", "result": 2.5, "unit": "μm"}, {"measurement": "Total of known foreign steroids", "setting": "[1]; sample 9, 120° C., 2 hours", "result": 0.15}, {"measurement": "Total of unknown foreign steroids", "setting": "[1]; sample 9, 120° C., 2 hours", "result": 0.07}, {"measurement": "Budesonide content", "setting": "[1]; sample 10, 120° C., 4 hours", "result": 99.0, "unit": "% by wt"}, {"measurement": "Epimer A", "setting": "[1]; sample 10, 120° C., 4 hours", "result": 48.7, "unit": "% by wt"}, {"measurement": "Size (mass median diameter, Coulter counter)", "setting": "[1]; sample 10, 120° C., 4 hours", "result": 2.3, "unit": "μm"}, {"measurement": "Size range (10-90%)", "setting": "[1]; sample 10, 120° C., 4 hours", "result": 2.5, "unit": "μm"}, {"measurement": "Total of known foreign steroids", "setting": "[1]; sample 10, 120° C., 4 hours", "result": 0.17}, {"measurement": "Total of unknown foreign steroids", "setting": "[1]; sample 10, 120° C., 4 hours", "result": 0.16}, {"measurement": "Budesonide content (%)", "setting": "[2]; Ref., not irradiated", "result": "99.5-99.8%"}, {"measurement": "Related substances: Total of known foreign steroids", "setting": "[2]; Ref., not irradiated", "result": "0.13-0.15"}, {"measurement": "Related substances: Total of unknown foreign steroids", "setting": "[2]; Ref., not irradiated", "result": "0.03-0.04"}, {"measurement": "Decrease of budesonide content", "setting": "[2]; when exposed to β- or γ-irradiation", "result": "0.5-4.6%"}, {"measurement": "Budesonide content (%)", "setting": "[2]; β-irradiation 2.5 kGy", "result": 99.1, "unit": "%"}, {"measurement": "Related substances: Total of known foreign steroids", "setting": "[2]; β-irradiation 2.5 kGy", "result": 0.19}, {"measurement": "Related substances: Total of unknown foreign steroids", "setting": "[2]; β-irradiation 2.5 kGy", "result": 0.19}, {"measurement": "Budesonide content (%)", "setting": "[2]; β-irradiation 5 kGy", "result": 98.9, "unit": "%"}, {"measurement": "Related substances: Total of known foreign steroids", "setting": "[2]; β-irradiation 5 kGy", "result": 0.19}, {"measurement": "Related substances: Total of unknown foreign steroids", "setting": "[2]; β-irradiation 5 kGy", "result": 0.24}, {"measurement": "Budesonide content (%)", "setting": "[2]; β-irradiation 10 kGy", "result": 98.9, "unit": "%"}, {"measurement": "Related substances: Total of known foreign steroids", "setting": "[2]; β-irradiation 10 kGy", "result": 0.18}, {"measurement": "Related substances: Total of unknown foreign steroids", "setting": "[2]; β-irradiation 10 kGy", "result": 0.26}, {"measurement": "Budesonide content (%)", "setting": "[2]; β-irradiation 17 kGy", "result": 98.8, "unit": "%"}, {"measurement": "Related substances: Total of known foreign steroids", "setting": "[2]; β-irradiation 17 kGy", "result": 0.20}, {"measurement": "Related substances: Total of unknown foreign steroids", "setting": "[2]; β-irradiation 17 kGy", "result": 0.36}, {"measurement": "Budesonide content (%)", "setting": "[2]; β-irradiation 25 kGy", "result": 98.8, "unit": "%"}, {"measurement": "Related substances: Total of known foreign steroids", "setting": "[2]; β-irradiation 25 kGy", "result": 0.21}, {"measurement": "Related substances: Total of unknown foreign steroids", "setting": "[2]; β-irradiation 25 kGy", "result": 0.43}, {"measurement": "Budesonide content (%)", "setting": "[2]; γ-irradiation 7.8 kGy", "result": 97.9, "unit": "%"}, {"measurement": "Related substances: Total of known foreign steroids", "setting": "[2]; γ-irradiation 7.8 kGy", "result": 0.34}, {"measurement": "Related substances: Total of unknown foreign steroids", "setting": "[2]; γ-irradiation 7.8 kGy", "result": 0.68}, {"measurement": "Budesonide content (%)", "setting": "[2]; γ-irradiation 31.9 kGy", "result": 95.0, "unit": "%"}, {"measurement": "Related substances: Total of known foreign steroids", "setting": "[2]; γ-irradiation 31.9 kGy", "result": 0.51}, {"measurement": "Related substances: Total of unknown foreign steroids", "setting": "[2]; γ-irradiation 31.9 kGy", "result": 1.8}]}
